Reference: PubChem BioAssay AID504774 (Drosophila RNAi Screening Center, 2011)
The deposit covers about 23,000 reagents; this is an unselected part of those with a known target gene and a result. 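Values are quantile-normalised luminescence on an arbitrary scale; higher means more cells surviving MMS.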 Names joined by + are all predicted targets of the reagent. Reagent sequences are not shown.

Purpose: 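Knock-downs that shift viability of MMS-exposed cells relative to untreated ones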 (primary screen)
Cells: Drosophila Kc167 cells
Reagents: long dsRNA against Drosophila genes, about 0.25 µg dsRNA per well
Time to read-out: about 6 days: 3 days knock-down, then 3 days with or without MMS
Conditions: methyl methanesulphonate 0.004% (w/v) for 3 days after knock-down
Measured: 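Viability in wells given MMS, read as ATP luminescence, normalised by quantiles plate by plate and averaged across replicates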
Direction: mean viability with MMS and viability with MMS: higher = more surviving cells after MMS

gene	DRSC id	mean viability with MMS	viability with MMS, replicate 1	viability with MMS, replicate 2
CG16922 (retired record) (GeneID 32030)	DRSC19758	3.13e6	3.68e6	3.72e6
CG16922 (retired record) (GeneID 32030)	DRSC23140	3.59e6	4.12e6	4.03e6
CG15200 (GeneID 32060)	DRSC19647	3.51e6	3.99e6	3.96e6
CG31957 (GeneID 319046)	DRSC00207	3.36e6	3.96e6	3.70e6
Stam (GeneID 34505)	DRSC03444	3.39e6	3.67e6	3.95e6
CG17261 (GeneID 33522)	DRSC00498	3.48e6	3.89e6	4.00e6
CG9536 (GeneID 33904)	DRSC03254	3.51e6	3.91e6	4.04e6
CG32811 (GeneID 318222)	DRSC22649	3.60e6	4.05e6	4.06e6
CG15169 (GeneID 35161)	DRSC02470	3.77e6	4.33e6	4.13e6
robl22E (GeneID 33412)	DRSC00289	3.62e6	4.03e6	4.19e6
CG32767 (GeneID 31430)	DRSC18386	3.42e6	3.84e6	3.94e6
Jhe (GeneID 36780)	DRSC07174	3.61e6	4.00e6	4.17e6
CG8292 (GeneID 34125)	DRSC03082	3.75e6	4.01e6	4.49e6
spz3 (GeneID 34077)	DRSC02391	3.50e6	3.91e6	4.05e6
spz3 (GeneID 34077)	DRSC03008	3.45e6	3.90e6	3.91e6
I-t (GeneID 41414)	DRSC16713	3.52e6	4.01e6	3.97e6
Uev1A (GeneID 38613)	DRSC09763	3.46e6	3.92e6	3.92e6
Fas1 (GeneID 42025)	DRSC16669	3.60e6	4.06e6	4.15e6
Nedd8 (GeneID 35151)	DRSC02092	3.43e6	3.84e6	3.90e6
CG33339 (GeneID 2768681)	DRSC22917	3.60e6	4.09e6	4.03e6
grsm (GeneID 41587)	DRSC14165	3.54e6	3.79e6	4.25e6
grsm (GeneID 41587)	DRSC14843	3.62e6	3.99e6	4.26e6
Cisd2 (GeneID 43459)	DRSC14904	3.64e6	4.07e6	4.19e6
CG4042 (GeneID 40291)	DRSC11751	3.69e6	4.24e6	4.06e6
CG34199 (GeneID 5740128)	DRSC05867	3.29e6	3.92e6	3.67e6
Atg10 + CG18853 + CG12822	DRSC20757	2.40e6	4.02e6	3.92e6
Ccp84Ab (GeneID 40824)	DRSC12587	3.52e6	4.01e6	3.99e6
CG3328 (GeneID 37871)	DRSC04357	3.41e6	3.80e6	3.69e6
Blos4 (GeneID 39219)	DRSC10151	3.62e6	4.14e6	4.02e6
PGRP-LC (GeneID 39063)	DRSC08980	3.44e6	3.94e6	3.86e6
PGRP-LC (GeneID 39063)	DRSC10416	3.62e6	4.24e6	3.93e6
PGRP-LC (GeneID 39063)	DRSC10417	3.49e6	4.13e6	3.78e6
PHDP (GeneID 37788)	DRSC04635	3.55e6	4.04e6	4.03e6
Tango5 (GeneID 326232)	DRSC18023	3.54e6	4.25e6	3.90e6
CG34030 (GeneID 3885636)	DRSC08866	3.68e6	4.05e6	4.22e6
Gal (GeneID 33839)	DRSC03134	3.44e6	3.92e6	3.89e6
CG32445 (GeneID 261603)	DRSC11678	3.63e6	4.22e6	4.00e6
ApepP (GeneID 35029)	DRSC01866	3.25e6	3.81e6	3.51e6
CG11275 (GeneID 37534)	DRSC04095	3.47e6	3.88e6	3.98e6
CG7906 (GeneID 39575)	DRSC10928	3.83e6	4.30e6	4.30e6
CG12672 (GeneID 32781)	DRSC19482	3.58e6	4.07e6	4.04e6
BomBc1 (GeneID 37099)	DRSC06501	3.58e6	3.99e6	4.11e6

In a second layout: entries from further up
gene | DRSC id | mean viability with MMS | viability with MMS, replicate 1 | viability with MMS, replicate 2
PHDP (GeneID 37788) | DRSC04635 | 3.55e6 | 4.04e6 | 4.03e6
Tango5 (GeneID 326232) | DRSC18023 | 3.54e6 | 4.25e6 | 3.90e6
CG34030 (GeneID 3885636) | DRSC08866 | 3.68e6 | 4.05e6 | 4.22e6
Gal (GeneID 33839) | DRSC03134 | 3.44e6 | 3.92e6 | 3.89e6
CG32445 (GeneID 261603) | DRSC11678 | 3.63e6 | 4.22e6 | 4.00e6
ApepP (GeneID 35029) | DRSC01866 | 3.25e6 | 3.81e6 | 3.51e6
CG11275 (GeneID 37534) | DRSC04095 | 3.47e6 | 3.88e6 | 3.98e6

Continued.
gene	DRSC id	mean viability with MMS	viability with MMS, replicate 1	viability with MMS, replicate 2
Cpr64Ad (GeneID 38511)	DRSC08284	3.47e6	3.84e6	4.03e6
Cp7Fb (GeneID 31785)	DRSC18034	3.48e6	3.97e6	3.93e6
Jhbp16 (GeneID 42552)	DRSC15039	3.71e6	4.21e6	4.21e6
CG3009 (GeneID 31402)	DRSC18263	3.56e6	4.05e6	4.08e6
Eaf6 (GeneID 38637)	DRSC09901	3.48e6	3.94e6	3.97e6
CG32536 + CG32537	DRSC20074	3.73e6	4.12e6	4.24e6
Cp19 (GeneID 39000)	DRSC11121	3.48e6	3.97e6	3.94e6
exd (GeneID 32567)	DRSC20330	3.55e6	4.06e6	4.01e6
Obp85a (GeneID 41006)	DRSC14362	3.49e6	4.03e6	3.89e6
CG7329 (GeneID 34457)	DRSC03046	3.41e6	4.02e6	3.68e6
CG12301 (GeneID 39689)	DRSC09875	3.47e6	3.87e6	3.99e6
Gr58a (GeneID 117344)	DRSC03910	3.53e6	3.99e6	4.01e6
SkpA (GeneID 31016)	DRSC18833	3.17e6	3.73e6	3.74e6
CG42375 + CG9288	DRSC16468	3.40e6	3.85e6	3.82e6
Non3 (GeneID 42183)	DRSC16359	3.50e6	3.99e6	3.94e6
CG16727 (GeneID 42338)	DRSC15139	3.63e6	4.03e6	4.20e6
CG11786 (GeneID 42998)	DRSC14389	3.73e6	4.14e6	4.31e6
Polr3G (GeneID 39941)	DRSC21511	3.51e6	3.97e6	4.01e6
CG3690 (GeneID 31047)	DRSC18170	3.71e6	4.22e6	4.16e6
CG3690 (GeneID 31047)	DRSC18641	3.68e6	4.11e6	4.22e6
Sec3 (GeneID 39940)	DRSC10384	3.58e6	4.09e6	4.02e6
ppk (GeneID 34843)	DRSC03595	3.57e6	4.09e6	4.01e6
Pu (GeneID 37415)	DRSC04645	3.26e6	3.58e6	3.29e6
Vha36-1 (GeneID 44702)	DRSC07098	3.58e6	4.01e6	4.11e6
CG7065 (GeneID 31844)	DRSC18420	3.55e6	4.01e6	3.74e6
CG4360 (GeneID 42413)	DRSC15566	3.76e6	4.21e6	4.32e6
Antdh (GeneID 32058)	DRSC20307	3.62e6	4.16e6	4.02e6
CG2225 (GeneID 35421)	DRSC03722	3.66e6	4.15e6	4.38e6
CG2225 (GeneID 35421)	DRSC03723	3.45e6	4.01e6	3.78e6
CG42552 (retired record) (GeneID 8674047)	DRSC11512	3.50e6	3.83e6	4.13e6
CG5555 (GeneID 42302)	DRSC15834	3.54e6	4.09e6	3.94e6
Cln3 (GeneID 39981)	DRSC10520	3.52e6	3.96e6	4.02e6
CG33771 (GeneID 3772424)	DRSC11718	1.88e6	4.01e6	4.08e6
CG13898 (GeneID 38092)	DRSC08368	3.63e6	4.11e6	4.07e6
Cyp6d4 (GeneID 42682)	DRSC16633	3.56e6	4.00e6	4.08e6
CG40053 (retired record) (GeneID 3355092)	DRSC20833	2.33e6	4.02e6	4.05e6
CG14839 (GeneID 41736)	DRSC14963	3.77e6	4.09e6	4.34e6
CG33278 (GeneID 2768946)	DRSC10336	3.47e6	3.90e6	3.97e6
CG10993 (GeneID 32344)	DRSC19362	3.58e6	4.06e6	4.05e6
TwdlP (GeneID 43201)	DRSC14734	3.58e6	4.06e6	4.06e6
CG7099 (GeneID 34753)	DRSC03006	3.46e6	3.85e6	3.97e6
lncRNA:CR32658 (GeneID 3772624)	DRSC19402	3.65e6	4.19e6	4.04e6
ATbp (GeneID 5740592)	DRSC20906	3.36e6	3.80e6	3.82e6
Sos (GeneID 34790)	DRSC03439	3.20e6	3.71e6	3.62e6
Jhbp1 (GeneID 40613)	DRSC12167	3.32e6	3.78e6	3.70e6
